Assay results: patent publication US9796660 (dated 2017)

Assay: general procedure: solution-phase peptide synthesis; EDCI/HOBt/DIEA; EDCI/DMAP

Row | Substance | step yield (coupling step) [% yield] | step yield (late stage modification step) [% yield]
1 | NO2-(Et)ACHA-(D)Phe-(Et)ACHA-(D)Phe-OMe | 80 | –
2 | Boc-(Et)ACHA-(D)Phe-(Et)ACHA-(D)Phe-OMe | – | 80
3 | Boc-(D)Ala-(Et)ACHA-(D)Ala-(Et)ACHA-(D)Ala-(Et)ACHA-OBn | 92 | –
4 | Boc-(D)Ala-(Et)ACHA-(D)Ala-(Et)ACHA-OBn | 90 | –
